Laboratory results taken from US7786093B2, “Antistress agent” (Health Wellness Foods Corporation, priority 2004, dated 2010).
For at least one compound, name, drawing or mass did not settle the structure.

Key:
human mononuclear cells = experiment: Suppression by nigerose of the DEX-induced decrease in growth of ConA- or PHA-stimulated human mononuclear cells (WST-1 absorbance); format: cell-based; settings: addition of DEX
Procedure: After a blood sample obtained from an adult was diluted two-fold with PBS, a Ficoll-Paque Plus solution (manufactured by Amersham Corporation) was added slowly to make double layers (blood diluted two-fold with PBS Ficoll-Paque Plus solution=4:3), which were centrifuged at the conditions of 400×g, 20° C. and 40 minutes. A mononuclear cell fraction present in the middle layer was recovered, and this mononuclear cell fraction washed twice with a 10-fold volume of PBS. The obtained mononuclear cells were suspended in an RPMI 1640 culture medium (manufactured by GIBCO BRL Corporation) to obtain a suspension of peripheral blood mononuclear cells. The number of cells in the suspension of peripheral blood mononuclear cells was measured with an automatic blood cell counter (manufactured by Sysmex Co., Ltd., Type CDA-500), and the mononuclear cells were suspended in RPMI 1640 culture medium so as to make the number of cells at a concentration of 2.0×10^6 cells/mL. […] At 4 hours before completion of the incubation, a solution of WST-1 (manufactured by Dojindo Laboratories Inc.), dissolved in 0.4 mM 1-methoxy PMS (manufactured by Dojindo Laboratories Inc.) to make a concentration of 10 mM, was added in 10 μL per one well, and the absorbance at a measurement wavelength of 450 nm and a reference wavelength of 630 nm was measured at the time of completion of the incubation. […]

BALB/c mice = experiment: Thymic and splenic atrophy due to DEX in mice; format: in vivo; settings: administration of DEX in the control group
Procedure: Female BALB/c mice (8 weeks old) were divided into a group fed with a commercially available feed (control group) and a group fed with a commercially available feed mixed with a nigerooligosaccharide liquid sugar (Nigero S: content of nigerooligosaccharide: 30.8% by weight; manufactured by Takeda Food Products, Ltd.) at a concentration of 5% by weight (nigerooligosaccharide group). […] After 24 hours of the administration, the thymus and spleen of each mouse were excised, and the weights of the excised thymus and spleen were measured.

C[C@@H]1C[C@H]2[C@@H]3CCC4=CC(=O)C=C[C@]4(C)[C@@]3(F)[C@@H](O)C[C@]2(C)[C@@]1(O)C(=O)CO [DEX, Dexamethasone]
growth of mononuclear cells induced by ConA and PHA (human mononuclear cells): decreased
weights of spleen and thymus (BALB/c mice): significant decrease
